Test results published in US7262172B2, “Macrolides” (Glaxo Group Limited, priority 2000, dated 2007).
Some results were stated once for a whole list of compounds, not compound by compound. For at least one compound, name, drawing or mass did not settle the structure.

How the values were obtained:
[1] = test system: erythromycin resistant Streptococcus pneumoniae strains; assay: MIC according to NCCLS, erythromycin resistant S. pneumoniae; type: cell-based
[2] = test system: erythromycin susceptible Streptococcus pneumoniae; assay: MIC according to NCCLS, erythromycin susceptible S. pneumoniae; type: cell-based

Molecule | MIC [1] | MIC (microbial inhibition concentration) [2]
4″-O-(4-(3-quinolyl)butanoyl)-6-O-methyl-8a-aza-8a-homoerythromycin A [Example 25] | <= 2 ug/ml | <= 0.01 ug/ml
4″-O-[3-(1,2,3,4-tetrahydro-3-quinolyl)-ethyl-carbonyl]-6-O-methyl-8a-aza-8a-homoerythromycin A [Example 37] | <= 2 ug/ml | <= 0.01 ug/ml
4″-O-[3-(3-quinolyl)-2-ethenylcarbonyl]-6-O-methyl-8a-aza-8a-homoerythromycin A [Example 2] | <= 2 ug/ml | <= 0.01 ug/ml
CCC1OC(=O)C(C)C(OC2CC(C)(OC)C(OC(=O)C=Cc3cnc4ccccc4c3)C(C)O2)C(C)C(OC2OC(C)CC(N(C)C)C2O)C(C)(O)CC(C)NC(=O)C(C)C(O)C1(C)O (centres unmarked) [Example 4, 4″-O-[3-(3-quinolyl)-2-ethenylcarbonyl]-8a-aza-8a-homoerythromycin A] | <= 2 ug/ml | <= 0.01 ug/ml
